Earlier results in patent US10561708B2, “Anti-tumor therapy” (The University of Chicago, priority 2013, dated 2020).
At least one structure is not confirmed: it was looked up by name or label, or the drawing left a doubt.

Tested on: androgen-independent prostate cancer
Conditions: cited from earlier work

N#CC[C@H](C1CCCC1)n1cc(-c2ncnc3[nH]ccc23)cn1 [ruxtolitinib]
efficacy in Phase II clinical trial: failed to show efficacy
